From the supplement of paper PMC12819154, “High-throughput peptide-centric local stability assay extends protein–ligand identification to membrane proteins, tissues and bacteria” (Nature Structural & Molecular Biology, 2025)
Some of the results follow. Most entries show no effect beyond the scatter of the controls.

Amino acid sequences for entries named in this document (tags omitted). A change or cut given only in a name is not applied to a line headed by its entry.
UniProt Q14807: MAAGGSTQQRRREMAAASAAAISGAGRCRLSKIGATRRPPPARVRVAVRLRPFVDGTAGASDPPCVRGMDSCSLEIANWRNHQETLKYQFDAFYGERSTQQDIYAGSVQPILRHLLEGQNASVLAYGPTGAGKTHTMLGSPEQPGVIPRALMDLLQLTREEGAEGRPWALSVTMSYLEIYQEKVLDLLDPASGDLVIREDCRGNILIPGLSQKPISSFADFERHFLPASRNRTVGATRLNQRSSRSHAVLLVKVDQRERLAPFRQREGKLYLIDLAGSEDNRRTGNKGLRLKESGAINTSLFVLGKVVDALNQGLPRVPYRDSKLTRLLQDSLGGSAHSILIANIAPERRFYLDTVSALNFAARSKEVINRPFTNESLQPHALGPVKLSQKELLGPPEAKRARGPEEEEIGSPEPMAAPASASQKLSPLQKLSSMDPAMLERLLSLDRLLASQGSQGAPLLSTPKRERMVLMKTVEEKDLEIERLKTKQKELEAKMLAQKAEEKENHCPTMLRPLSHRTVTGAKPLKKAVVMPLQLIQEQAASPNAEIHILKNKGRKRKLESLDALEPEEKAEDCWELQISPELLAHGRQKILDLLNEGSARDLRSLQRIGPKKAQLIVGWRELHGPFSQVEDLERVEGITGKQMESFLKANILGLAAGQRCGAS
UniProt Q14254: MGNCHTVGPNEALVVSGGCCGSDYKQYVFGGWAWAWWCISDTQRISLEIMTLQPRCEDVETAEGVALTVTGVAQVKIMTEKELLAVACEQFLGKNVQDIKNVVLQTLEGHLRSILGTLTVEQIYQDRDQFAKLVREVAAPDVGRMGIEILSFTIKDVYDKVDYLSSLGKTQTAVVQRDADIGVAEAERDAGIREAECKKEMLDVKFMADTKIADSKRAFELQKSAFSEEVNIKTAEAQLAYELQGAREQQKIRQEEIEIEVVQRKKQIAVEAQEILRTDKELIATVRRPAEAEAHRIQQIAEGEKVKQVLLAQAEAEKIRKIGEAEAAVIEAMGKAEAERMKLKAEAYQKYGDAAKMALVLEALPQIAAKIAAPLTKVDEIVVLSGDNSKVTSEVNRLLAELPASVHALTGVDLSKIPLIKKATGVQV
UniProt Q13868, whole entry: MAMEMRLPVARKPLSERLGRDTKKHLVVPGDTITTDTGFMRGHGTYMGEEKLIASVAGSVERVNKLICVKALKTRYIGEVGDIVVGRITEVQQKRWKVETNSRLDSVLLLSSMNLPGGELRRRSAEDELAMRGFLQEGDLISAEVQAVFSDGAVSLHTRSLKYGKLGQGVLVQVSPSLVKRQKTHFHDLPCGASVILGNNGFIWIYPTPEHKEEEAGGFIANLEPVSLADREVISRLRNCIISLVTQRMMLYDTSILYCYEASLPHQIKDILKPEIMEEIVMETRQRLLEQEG
UniProt Q14667: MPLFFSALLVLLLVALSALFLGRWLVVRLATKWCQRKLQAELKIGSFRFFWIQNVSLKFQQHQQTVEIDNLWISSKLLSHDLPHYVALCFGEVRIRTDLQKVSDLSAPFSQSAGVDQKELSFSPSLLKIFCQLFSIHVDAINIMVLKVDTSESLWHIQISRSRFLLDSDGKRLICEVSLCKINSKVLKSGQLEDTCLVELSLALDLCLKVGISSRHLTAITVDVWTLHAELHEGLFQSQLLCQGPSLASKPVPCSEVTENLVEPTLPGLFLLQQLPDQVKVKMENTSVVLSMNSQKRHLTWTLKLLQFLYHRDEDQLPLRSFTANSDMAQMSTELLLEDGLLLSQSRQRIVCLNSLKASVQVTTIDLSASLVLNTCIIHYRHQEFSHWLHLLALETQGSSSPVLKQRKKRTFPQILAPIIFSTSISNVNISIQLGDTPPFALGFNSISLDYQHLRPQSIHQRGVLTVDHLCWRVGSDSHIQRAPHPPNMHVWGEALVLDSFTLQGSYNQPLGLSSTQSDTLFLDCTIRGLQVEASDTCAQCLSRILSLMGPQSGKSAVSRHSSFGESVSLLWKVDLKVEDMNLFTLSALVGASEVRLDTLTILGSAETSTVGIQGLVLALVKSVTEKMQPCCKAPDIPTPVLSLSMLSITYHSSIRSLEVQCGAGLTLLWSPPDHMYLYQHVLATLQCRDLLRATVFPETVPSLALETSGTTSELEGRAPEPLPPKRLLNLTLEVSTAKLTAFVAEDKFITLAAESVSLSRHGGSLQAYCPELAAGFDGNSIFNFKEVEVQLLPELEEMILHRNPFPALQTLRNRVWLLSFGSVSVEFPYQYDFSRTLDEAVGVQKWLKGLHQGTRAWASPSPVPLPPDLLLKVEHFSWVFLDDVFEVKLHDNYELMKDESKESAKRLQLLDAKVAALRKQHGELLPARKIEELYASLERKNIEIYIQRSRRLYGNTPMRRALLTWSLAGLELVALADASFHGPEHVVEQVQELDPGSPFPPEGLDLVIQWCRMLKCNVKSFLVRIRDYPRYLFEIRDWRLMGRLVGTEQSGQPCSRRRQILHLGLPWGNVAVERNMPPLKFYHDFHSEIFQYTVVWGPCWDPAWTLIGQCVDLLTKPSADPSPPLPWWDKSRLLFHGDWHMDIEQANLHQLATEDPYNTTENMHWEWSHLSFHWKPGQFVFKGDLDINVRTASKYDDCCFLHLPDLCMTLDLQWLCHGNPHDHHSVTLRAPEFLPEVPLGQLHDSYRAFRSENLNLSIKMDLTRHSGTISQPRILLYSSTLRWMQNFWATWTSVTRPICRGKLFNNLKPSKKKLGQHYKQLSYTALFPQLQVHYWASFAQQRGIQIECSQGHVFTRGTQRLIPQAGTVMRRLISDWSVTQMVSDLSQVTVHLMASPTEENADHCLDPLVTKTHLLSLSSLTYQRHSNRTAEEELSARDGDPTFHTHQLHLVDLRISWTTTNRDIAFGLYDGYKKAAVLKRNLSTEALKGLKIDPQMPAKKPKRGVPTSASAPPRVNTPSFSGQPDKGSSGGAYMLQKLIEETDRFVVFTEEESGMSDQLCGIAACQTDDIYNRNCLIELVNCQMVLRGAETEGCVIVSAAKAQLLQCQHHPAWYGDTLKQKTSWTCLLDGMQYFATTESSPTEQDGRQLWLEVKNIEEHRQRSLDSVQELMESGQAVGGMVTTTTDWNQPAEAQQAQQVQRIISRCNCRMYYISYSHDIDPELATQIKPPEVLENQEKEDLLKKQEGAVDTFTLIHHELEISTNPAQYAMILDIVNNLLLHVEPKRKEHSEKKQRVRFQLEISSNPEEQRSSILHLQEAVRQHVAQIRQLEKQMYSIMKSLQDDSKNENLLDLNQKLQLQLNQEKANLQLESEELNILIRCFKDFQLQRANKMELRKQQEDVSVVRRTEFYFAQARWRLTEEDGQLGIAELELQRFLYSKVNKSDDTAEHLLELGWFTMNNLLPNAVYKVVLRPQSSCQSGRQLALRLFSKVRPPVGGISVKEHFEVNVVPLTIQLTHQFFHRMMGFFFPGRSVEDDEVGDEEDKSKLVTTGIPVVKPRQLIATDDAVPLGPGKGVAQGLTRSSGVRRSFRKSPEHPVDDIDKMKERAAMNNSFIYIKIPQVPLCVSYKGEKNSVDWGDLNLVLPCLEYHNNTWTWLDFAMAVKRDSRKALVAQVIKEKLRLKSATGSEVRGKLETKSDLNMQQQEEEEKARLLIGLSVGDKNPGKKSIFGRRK
UniProt Q13439: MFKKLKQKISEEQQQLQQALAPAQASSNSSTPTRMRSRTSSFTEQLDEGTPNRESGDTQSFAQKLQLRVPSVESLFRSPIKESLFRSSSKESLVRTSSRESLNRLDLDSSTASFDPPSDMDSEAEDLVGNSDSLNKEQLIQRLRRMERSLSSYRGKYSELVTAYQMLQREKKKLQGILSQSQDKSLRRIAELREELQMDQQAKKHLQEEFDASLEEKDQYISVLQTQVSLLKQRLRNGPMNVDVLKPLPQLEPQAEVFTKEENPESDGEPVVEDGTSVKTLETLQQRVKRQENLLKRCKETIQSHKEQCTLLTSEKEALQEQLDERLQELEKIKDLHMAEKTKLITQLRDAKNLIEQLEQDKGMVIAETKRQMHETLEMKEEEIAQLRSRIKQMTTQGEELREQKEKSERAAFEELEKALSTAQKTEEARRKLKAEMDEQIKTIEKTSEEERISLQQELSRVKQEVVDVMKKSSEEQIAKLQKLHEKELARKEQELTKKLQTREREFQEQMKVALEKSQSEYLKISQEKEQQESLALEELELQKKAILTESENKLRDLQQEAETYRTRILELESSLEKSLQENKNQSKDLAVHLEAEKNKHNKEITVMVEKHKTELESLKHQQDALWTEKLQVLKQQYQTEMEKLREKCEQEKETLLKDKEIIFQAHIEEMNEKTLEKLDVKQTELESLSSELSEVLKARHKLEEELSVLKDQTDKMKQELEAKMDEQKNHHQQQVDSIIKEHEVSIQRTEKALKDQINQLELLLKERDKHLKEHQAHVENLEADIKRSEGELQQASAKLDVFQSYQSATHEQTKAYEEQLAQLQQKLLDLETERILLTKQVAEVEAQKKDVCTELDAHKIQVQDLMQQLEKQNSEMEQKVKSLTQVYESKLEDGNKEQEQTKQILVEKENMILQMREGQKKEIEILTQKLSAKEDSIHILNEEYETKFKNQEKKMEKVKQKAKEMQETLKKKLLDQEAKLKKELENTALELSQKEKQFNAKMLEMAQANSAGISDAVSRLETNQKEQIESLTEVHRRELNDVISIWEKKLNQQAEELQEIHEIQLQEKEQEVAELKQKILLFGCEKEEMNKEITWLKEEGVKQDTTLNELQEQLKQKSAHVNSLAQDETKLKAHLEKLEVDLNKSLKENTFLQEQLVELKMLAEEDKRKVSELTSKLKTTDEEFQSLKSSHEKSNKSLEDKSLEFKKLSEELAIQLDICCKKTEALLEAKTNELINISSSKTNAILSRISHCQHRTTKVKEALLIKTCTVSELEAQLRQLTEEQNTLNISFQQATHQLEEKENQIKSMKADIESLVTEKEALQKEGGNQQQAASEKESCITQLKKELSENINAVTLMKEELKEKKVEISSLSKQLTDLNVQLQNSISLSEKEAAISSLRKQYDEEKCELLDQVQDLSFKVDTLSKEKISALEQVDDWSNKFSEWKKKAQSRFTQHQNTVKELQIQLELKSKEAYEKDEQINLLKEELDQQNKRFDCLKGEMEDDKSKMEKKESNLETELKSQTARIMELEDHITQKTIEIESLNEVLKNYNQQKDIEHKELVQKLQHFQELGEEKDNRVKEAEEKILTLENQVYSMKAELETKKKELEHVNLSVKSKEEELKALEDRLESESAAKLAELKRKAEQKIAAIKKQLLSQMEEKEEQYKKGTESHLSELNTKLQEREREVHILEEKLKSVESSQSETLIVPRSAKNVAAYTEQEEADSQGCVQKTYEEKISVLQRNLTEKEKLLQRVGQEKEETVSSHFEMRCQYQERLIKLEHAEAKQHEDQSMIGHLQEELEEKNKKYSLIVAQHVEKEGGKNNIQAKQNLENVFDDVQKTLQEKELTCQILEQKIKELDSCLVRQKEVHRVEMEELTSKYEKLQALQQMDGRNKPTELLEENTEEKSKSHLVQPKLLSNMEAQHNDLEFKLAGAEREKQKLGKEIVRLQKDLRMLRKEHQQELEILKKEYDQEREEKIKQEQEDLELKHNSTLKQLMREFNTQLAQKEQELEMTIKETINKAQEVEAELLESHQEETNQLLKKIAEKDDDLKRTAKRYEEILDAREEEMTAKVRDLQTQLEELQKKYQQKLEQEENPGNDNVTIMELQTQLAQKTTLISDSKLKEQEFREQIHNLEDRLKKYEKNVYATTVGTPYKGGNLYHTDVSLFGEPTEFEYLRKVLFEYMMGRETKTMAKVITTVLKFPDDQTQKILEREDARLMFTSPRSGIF
UniProt Q13162: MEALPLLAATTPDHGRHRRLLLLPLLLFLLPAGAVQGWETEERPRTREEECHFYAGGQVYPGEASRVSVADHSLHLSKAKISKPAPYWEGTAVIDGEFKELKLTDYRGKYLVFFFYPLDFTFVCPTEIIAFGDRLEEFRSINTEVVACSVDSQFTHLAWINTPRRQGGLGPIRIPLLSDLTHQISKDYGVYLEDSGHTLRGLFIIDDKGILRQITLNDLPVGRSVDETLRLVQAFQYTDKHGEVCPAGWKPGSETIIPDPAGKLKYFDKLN
UniProt Q13895: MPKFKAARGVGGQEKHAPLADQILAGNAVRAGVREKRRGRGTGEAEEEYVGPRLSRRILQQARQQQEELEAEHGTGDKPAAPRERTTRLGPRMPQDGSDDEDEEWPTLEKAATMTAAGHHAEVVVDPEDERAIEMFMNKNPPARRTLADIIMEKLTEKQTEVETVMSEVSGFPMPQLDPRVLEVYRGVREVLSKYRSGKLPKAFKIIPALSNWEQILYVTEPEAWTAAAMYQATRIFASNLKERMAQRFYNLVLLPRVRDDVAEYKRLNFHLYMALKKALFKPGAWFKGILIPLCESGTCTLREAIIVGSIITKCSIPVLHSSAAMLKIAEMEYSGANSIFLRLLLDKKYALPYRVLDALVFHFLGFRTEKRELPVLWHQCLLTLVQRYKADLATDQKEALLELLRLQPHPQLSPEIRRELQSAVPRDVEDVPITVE

The targets below were run with Cc1nc(Nc2ncc(C(=O)Nc3c(C)cccc3Cl)s2)cc(N2CCN(CCO)CC2)n1 [dasatinib] (assay: log2 fold change of tryptic peptide abundance, ligand vs vehicle (limited proteolysis) (log2 ratio); higher = more trypsin-susceptible (destabilized)). Conditions: ligand concentration: 5 uM; sample: K562 cleared lysate.
For “ZMYM3 (peptide sequence: TRNDVFYLQPER, peptide start residue: 1313) (UniProt Q14202)”, the log2 fold change was -0.107.
With “KIF22 (peptide sequence: LYLIDLAGSEDNRR, peptide start residue: 270) (UniProt Q14807)” the log2 fold change was 0.164.
“MTM1 (peptide sequence: LEELQLANSAK, peptide start residue: 571) (UniProt Q13496)” gave a log2 fold change of -0.668.
“FLOT2 (peptide sequence: QVLLAQAEAEKIR, peptide start residue: 308) (UniProt Q14254)” gave a log2 fold change of 0.301.
Work on “MTA1 (peptide sequence: DITLFHAMDTLHK, peptide start residue: 248) (UniProt Q13330)” yielded a log2 fold change of -0.778.
“TRIM14 (peptide sequence: RYDLEYWAFHDGQR, peptide start residue: 366) (UniProt Q14142)” gave a log2 fold change of -0.379.
In the case of “UniProt Q13243 (peptide sequence: GFGFVEFEDPR, peptide start residue: 38)”, the log2 fold change is reported as -0.125.
“MTMR2 (peptide sequence: KVEELQR, peptide start residue: 610) (UniProt Q13614)” showed a log2 fold change of -0.265.
“IDI1 (peptide sequence: PEINTNHLDK, peptide start residue: 2) (UniProt Q13907)” showed a log2 fold change of -0.0833.
Target “FKBP5 (peptide sequence: RGEAQLLMNEFESAKGDFEK, peptide start residue: 357) (UniProt Q13451)” has a log2 fold change of 0.111.
“STX5 (peptide sequence: DVAIDMMDSR, peptide start residue: 242) (UniProt Q13190)” showed a log2 fold change of -0.0819.
In the case of “EXOSC2 (peptide sequence: SAEDELAMR, peptide start residue: 124) (UniProt Q13868)”, the log2 fold change is reported as -0.48.
With “GPS1 (peptide sequence: RGHDDLGDHYLDCGDLSNALK, peptide start residue: 163) (UniProt Q13098)” the log2 fold change was -0.193.
“GPS2 (peptide sequence: VLHEEEK, peptide start residue: 93) (UniProt Q13227)” gave a log2 fold change of 0.838.
“MAD2L1 (peptide sequence: WQFDIECDKTAK, peptide start residue: 100) (UniProt Q13257)” showed a log2 fold change of -0.242.
Target “MTMR1 (peptide sequence: GSSPSHSATSVHTSV, peptide start residue: 651) (UniProt Q13613)” has a log2 fold change of 0.056.
In the case of “PPIG (peptide sequence: SNEHDHSK, peptide start residue: 527) (UniProt Q13427)”, the log2 fold change is reported as 0.609.
“SNX1 (peptide sequence: LQQAKDEILEWESR, peptide start residue: 446) (UniProt Q13596)” showed a log2 fold change of 0.177.
For “RBM39 (peptide sequence: CPSIAAAIAAVNALHGR, peptide start residue: 478) (UniProt Q14498)”, the log2 fold change was -0.481.
For “UniProt Q147X3 (peptide sequence: NGIGTNLVKK, peptide start residue: 296)”, the log2 fold change was 0.88.
“BLMH (peptide sequence: AQHVFQHAVPQEGKPITNQK, peptide start residue: 49) (UniProt Q13867)” gave a log2 fold change of 0.221.
In the case of “KIAA0100 (peptide sequence: LLIGLSVGDKNPGKK, peptide start residue: 2214) (UniProt Q14667)”, the log2 fold change is reported as -0.32.
Target “HLTF (peptide sequence: AVLDLESER, peptide start residue: 572) (UniProt Q14527)” has a log2 fold change of -0.707.
In the case of “GOLGA4 (peptide sequence: NKPTELLEENTEEK, peptide start residue: 1894) (UniProt Q13439)”, the log2 fold change is reported as 0.271.
“NFIX (peptide sequence: SITSPPSTSTTK, peptide start residue: 265) (UniProt Q14938)” was tested, and the log2 fold change was 0.122.
For “UniProt Q14209 (peptide sequence: YDTSLGLLTK, peptide start residue: 179)”, the log2 fold change was 0.362.
“ATR (peptide sequence: ETAAIFHYLIIENR, peptide start residue: 1229) (UniProt Q13535)” gave a log2 fold change of 0.498.
Work on “PRDX4 (peptide sequence: HGEVCPAGWKPGSETIIPDPAGK, peptide start residue: 241) (UniProt Q13162)” yielded a log2 fold change of -0.124.
In the case of “G3BP1 (peptide sequence: FYVHNDIFR, peptide start residue: 124) (UniProt Q13283)”, the log2 fold change is reported as -0.156.
“IL18 (peptide sequence: GMAVTISVK, peptide start residue: 95) (UniProt Q14116)” showed a log2 fold change of 0.359.
With “SF3B2 (peptide sequence: EHELLEQQKR, peptide start residue: 174) (UniProt Q13435)” the log2 fold change was 0.122.
“UniProt Q13620 (peptide sequence: EVPEYLHHVNKR, peptide start residue: 409)” gave a log2 fold change of -0.24.
Target “PUM1 (peptide sequence: SMDELNHDFQALALEGR, peptide start residue: 124) (UniProt Q14671)” has a log2 fold change of 0.0817.
With “GAPVD1 (peptide sequence: SECSSDFGGK, peptide start residue: 787) (UniProt Q14C86)” the log2 fold change was 0.158.
“BYSL (peptide sequence: LNFHLYMALKK, peptide start residue: 268) (UniProt Q13895)” was tested, and the log2 fold change was 0.181.
With “PPP2R5C (peptide sequence: EREEAWVKIENLAK, peptide start residue: 425) (UniProt Q13362)” the log2 fold change was 0.349.
For “ZNF638 (peptide sequence: GNMDEKEEKEFNTK, peptide start residue: 1305) (UniProt Q14966)”, the log2 fold change was -0.534.
